Numbering of substitutions follows the chain as printed. The exact form of at least one protein or probe is not confirmed. For some of these results: The comparison behind a weaker result is the experiment's own reference, which may not be listed here. Tags and fusion partners may be left off the protein sequences shown. For some of these results: At least one verdict was read from the data and is not stated in words by the source. For some of these results: The direction of at least one scale is not stated here.
What was measured:
Assay in all cases: RNA-dependent ATPase titration (KD,app)
Hel-CTD (human) = target: T1, Hel-CTD (human) (UniProt O95786); details: 1 mM ATP, value only in figure, Buffer A: 50 mM MOPS pH 7.4, 5 mM DTT, 5 mM MgCl2, 0.01% Tween20, 25°C (fluorimetry: 15 nM RNA; ATPase: 15 nM protein, 1 mM ATP), recombinant protein, protein details: 6xHis-SUMO removed by Ulp1
T1 sequence (looked up, limits assumed): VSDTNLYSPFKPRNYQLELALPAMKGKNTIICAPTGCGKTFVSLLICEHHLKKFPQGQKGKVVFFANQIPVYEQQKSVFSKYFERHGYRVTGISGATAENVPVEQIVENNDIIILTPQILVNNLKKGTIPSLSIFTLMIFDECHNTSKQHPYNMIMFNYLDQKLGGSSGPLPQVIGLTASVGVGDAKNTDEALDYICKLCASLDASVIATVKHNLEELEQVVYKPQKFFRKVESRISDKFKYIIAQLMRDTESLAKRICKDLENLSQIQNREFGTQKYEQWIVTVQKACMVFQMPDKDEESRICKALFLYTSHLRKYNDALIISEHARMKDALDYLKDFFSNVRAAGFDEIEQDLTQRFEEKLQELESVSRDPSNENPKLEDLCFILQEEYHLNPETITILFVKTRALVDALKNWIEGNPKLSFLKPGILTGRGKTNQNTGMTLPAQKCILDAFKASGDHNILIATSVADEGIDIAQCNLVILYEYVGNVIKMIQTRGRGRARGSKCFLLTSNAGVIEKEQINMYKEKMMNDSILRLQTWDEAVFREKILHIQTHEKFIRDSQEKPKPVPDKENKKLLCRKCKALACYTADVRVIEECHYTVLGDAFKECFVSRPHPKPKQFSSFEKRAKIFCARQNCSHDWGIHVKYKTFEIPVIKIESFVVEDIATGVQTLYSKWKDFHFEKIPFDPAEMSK

[1] = target: T2, CHL-Hel-CTD cf190-210 D194K,E196K,E198K,D199K,E201K,D202K,E205K,D208K (human) (UniProt O95786); details: 1 mM ATP, Buffer A: 50 mM MOPS pH 7.4, 5 mM DTT, 5 mM MgCl2, 0.01% Tween20, 25°C (fluorimetry: 15 nM RNA; ATPase: 15 nM protein, 1 mM ATP), recombinant protein, protein details: 6xHis-SUMO removed by Ulp1
T2 sequence (looked up, limits assumed): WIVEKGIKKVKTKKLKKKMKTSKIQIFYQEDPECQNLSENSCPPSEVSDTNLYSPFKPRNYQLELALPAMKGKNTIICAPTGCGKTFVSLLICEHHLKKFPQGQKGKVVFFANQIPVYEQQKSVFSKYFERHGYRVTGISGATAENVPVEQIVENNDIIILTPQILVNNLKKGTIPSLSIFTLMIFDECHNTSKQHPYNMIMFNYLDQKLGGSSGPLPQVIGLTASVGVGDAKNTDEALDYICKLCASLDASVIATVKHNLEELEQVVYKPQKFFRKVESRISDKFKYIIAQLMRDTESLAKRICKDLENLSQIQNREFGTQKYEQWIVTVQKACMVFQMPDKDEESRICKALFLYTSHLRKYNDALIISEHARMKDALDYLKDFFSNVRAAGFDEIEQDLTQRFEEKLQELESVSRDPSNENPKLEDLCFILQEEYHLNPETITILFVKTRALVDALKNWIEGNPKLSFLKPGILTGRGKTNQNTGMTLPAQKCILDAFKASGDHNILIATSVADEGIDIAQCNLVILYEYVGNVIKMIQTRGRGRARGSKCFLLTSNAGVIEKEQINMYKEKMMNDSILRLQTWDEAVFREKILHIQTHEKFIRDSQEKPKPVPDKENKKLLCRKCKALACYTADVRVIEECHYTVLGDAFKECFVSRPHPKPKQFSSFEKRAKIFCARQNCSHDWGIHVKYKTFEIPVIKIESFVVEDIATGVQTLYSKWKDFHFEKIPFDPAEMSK

CHL-Hel-CTD (human) = target: T3, CHL-Hel-CTD (human) (UniProt O95786); details: 1 mM ATP, Buffer A: 50 mM MOPS pH 7.4, 5 mM DTT, 5 mM MgCl2, 0.01% Tween20, 25°C (fluorimetry: 15 nM RNA; ATPase: 15 nM protein, 1 mM ATP), recombinant protein, protein details: 6xHis-SUMO removed by Ulp1
T3 sequence (looked up, limits assumed): T2 sequence (looked up, limits assumed) with K9D, K11E, K13E, K14D, K16E, K17D, K20E, K23D

WT RIG-I (human) = target: T4, WT RIG-I (human) (UniProt O95786); details: 1 mM ATP; 5'OH; Buffer A: 50 mM MOPS pH 7.4, 5 mM DTT, 5 mM MgCl2, 0.01% Tween20, 25°C (fluorimetry: 15 nM RNA; ATPase: 15 nM protein, 1 mM ATP); recombinant protein; protein details: 6xHis-SUMO removed by Ulp1; label: complement printed with 5' biotin and 3' DY547
T4 sequence (looked up, limits assumed): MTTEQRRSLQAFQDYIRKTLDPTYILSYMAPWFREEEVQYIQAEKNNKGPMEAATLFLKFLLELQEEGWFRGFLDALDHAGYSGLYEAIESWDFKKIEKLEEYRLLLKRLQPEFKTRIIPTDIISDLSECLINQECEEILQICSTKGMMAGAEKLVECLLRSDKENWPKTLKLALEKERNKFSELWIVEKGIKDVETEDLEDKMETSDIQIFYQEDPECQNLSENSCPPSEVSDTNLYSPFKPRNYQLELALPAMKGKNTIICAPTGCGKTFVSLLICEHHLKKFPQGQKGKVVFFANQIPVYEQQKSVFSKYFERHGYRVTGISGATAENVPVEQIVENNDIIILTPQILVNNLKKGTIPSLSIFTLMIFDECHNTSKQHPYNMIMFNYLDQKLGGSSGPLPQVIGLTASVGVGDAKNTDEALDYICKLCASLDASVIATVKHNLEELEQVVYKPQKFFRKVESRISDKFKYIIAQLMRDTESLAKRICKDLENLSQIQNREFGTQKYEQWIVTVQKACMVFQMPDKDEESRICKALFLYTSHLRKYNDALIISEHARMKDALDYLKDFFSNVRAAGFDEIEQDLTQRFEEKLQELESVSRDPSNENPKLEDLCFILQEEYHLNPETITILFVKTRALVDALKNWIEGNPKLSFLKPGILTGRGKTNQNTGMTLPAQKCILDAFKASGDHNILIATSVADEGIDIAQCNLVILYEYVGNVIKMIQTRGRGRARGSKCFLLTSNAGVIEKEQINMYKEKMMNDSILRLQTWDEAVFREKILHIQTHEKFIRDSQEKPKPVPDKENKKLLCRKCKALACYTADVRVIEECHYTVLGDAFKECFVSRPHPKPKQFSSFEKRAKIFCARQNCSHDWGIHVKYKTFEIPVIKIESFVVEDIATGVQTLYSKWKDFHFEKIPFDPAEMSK

[2] = 5'OH, label: complement printed with 5' biotin and 3' DY547
[3] = range for three non-PAMP RNAs, 5'OH, label: complement printed with 5' biotin and 3' DY547
[4] = CHL inhibition lost, 5'OH, label: complement printed with 5' biotin and 3' DY547

**Q.** Does “ATACGUCCUGAUAGUUAGUAUCCATC / CGATGGAUACUAACUAUCAGGACGTA [ds26 stem RNA]” bind (Hel-CTD (human); DNA at both ends: strand 1 nt 1-5 and 23-26, strand 2 nt 1-5 and 23-26, rest RNA, label: internal Cy3 in strand 2 after C13 (AAC(Cy3)UAU))?
**A.** binds

**Q.** Does “ATACGUCCUGAUAGUUAGUAUCCATC / CGATGGAUACUAACUAUCAGGACGTA [ds26 stem RNA]” bind ([1]; CHL inhibition lost, DNA at both ends: strand 1 nt 1-5 and 23-26, strand 2 nt 1-5 and 23-26, rest RNA, label: internal Cy3 in strand 2 after C13 (AAC(Cy3)UAU))?
**A.** binds

**Q.** Does “AUACGUCCUGAUAGUUAGUAUCCAUCG / CGAUGGAUACUAACUAUCAGGACGUAU [5'ppp ds27]” bind (Hel-CTD (human); 5'ppp on strand 1, label: 3' DY547 and 5' biotin on strand 2)?
**A.** binds

**Q.** Does “AUACGUCCUGAUAGUUAGUAUCCAUCG / CGAUGGAUACUAACUAUCAGGACGUAU [5'ppp ds27]” bind (CHL-Hel-CTD (human); not weaker than Hel-CTD, 5'ppp on strand 1, label: 3' DY547 and 5' biotin on strand 2)?
**A.** binds

**Q.** Does “AUACGUCCUGAUAGUUAGUAUCCAUCG / CGAUGGAUACUAACUAUCAGGACGUAU [5'ppp ds27]” bind ([1]; value only in figure, 5'ppp on strand 1, label: 3' DY547 and 5' biotin on strand 2)?
**A.** binds

**Q.** Does “ACGUCCUGAUAGUUAGUAUCCAUCG / CGAUGGAUACUAACUAUCAGGACGUAU [5'OH 3'ovg ds25]” bind (Hel-CTD (human); [2])?
**A.** binds

**Q.** Does “ACGUCCUGAUAGUUAGUAUCCAUCG / CGAUGGAUACUAACUAUCAGGACGUAU [5'OH 3'ovg ds25]” bind (CHL-Hel-CTD (human); [3])?
**A.** binds more weakly

**Q.** Does “ACGUCCUGAUAGUUAGUAUCCAUCG / CGAUGGAUACUAACUAUCAGGACGUAU [5'OH 3'ovg ds25]” bind [1, 4]?
**A.** binds

**Q.** What about the binding signal (fold weaker than Hel-CTD) (WT RIG-I (human)) of the same sequence?
**A.** 60

**Q.** Does “CUAUACGUCCUGAUAGUUAGUAUCCAUCG / CGAUGGAUACUAACUAUCAGGACGUAU [5'OH 5'ovg ds27]” bind (Hel-CTD (human); [2])?
**A.** binds

**Q.** Does “CUAUACGUCCUGAUAGUUAGUAUCCAUCG / CGAUGGAUACUAACUAUCAGGACGUAU [5'OH 5'ovg ds27]” bind (CHL-Hel-CTD (human); [3])?
**A.** binds more weakly

**Q.** Does “CUAUACGUCCUGAUAGUUAGUAUCCAUCG / CGAUGGAUACUAACUAUCAGGACGUAU [5'OH 5'ovg ds27]” bind [1, 4]?
**A.** binds

**Q.** And the binding signal (fold weaker than Hel-CTD) (WT RIG-I (human))?
**A.** 240

From PMC9108607, “The intrinsically disordered CARDs‐Helicase linker in RIG‐I is a molecular gate for RNA proofreading”
